{"source": "paper PMC12040169", "about": "(PLOS Biology, 2025)", "note": "Some of the results follow."}
{"system": "T1, CTL2-GFP (C. trachomatis L2/434/Bu, GFP-expressing)", "T1 construct": "L2/434/Bu, GFP-expressing", "parameters": "species or system HeLa; Intracellular C. trachomatis growth in HeLa cells, bulk GFP fluorescence relative to DMSO", "conditions": "bulk GFP, single well; 28.5 h, 10 µM; inhibitor", "units": {"% of control remaining": "%"}}
{"smiles": "C[C@H](NC(=O)Cc1ccc(-c2ccccc2)cc1)c1nc2ccccc2[nH]1", "note": "[CBK296998]", "% of control remaining": 107.845}
{"smiles": "CCC1CCCCN1CC(=O)N1CCCC1c1nc2ccccc2[nH]1", "note": "(stereo not drawn) [CBK282695]", "% of control remaining": 109.129}
{"smiles": "CCc1nc2ccc(C(=O)N(C)CCN(C)C)cn2c1N(C)Cc1nccs1", "note": "[CBK145474]", "% of control remaining": 168.754}
{"smiles": "CCN(CC)C(=O)CN1CCC(Oc2nccnc2OC2CCCCC2)CC1", "note": "[CBK082866T]", "% of control remaining": 137.76}
{"smiles": "CC1CCC(C(N)=O)CN1c1cc(Br)ccn1", "note": "(stereo not drawn) [CBK304856]", "% of control remaining": 107.381}
{"smiles": "COc1ccc([C@@]23CC[C@@H](NC(=O)Nc4c(F)ccc(F)c4Cl)C[C@@H]2N(C)CC3)cc1OC", "note": "[CBK073769T]", "% of control remaining": 121.019}
{"smiles": "CCc1ocnc1C(=O)NC1CCCN(Cc2ccccc2F)C1", "note": "(stereo not drawn) [CBK306924]", "% of control remaining": 106.005}
{"smiles": "Cc1ccccc1Nc1nc(CN2CCC3(CCCOC3)C2)cs1", "note": "(stereo not drawn) [CBK304255]", "% of control remaining": 92.2978}
{"smiles": "CSc1nnc(-c2ccccc2[N+](=O)[O-])n1CC(C)C", "note": "[CBK074959]", "% of control remaining": 108.009}
{"smiles": "Cc1cccc(-c2noc([C@@H]3Cc4[nH]cnc4CN3C(=O)NC(C)C)n2)c1", "note": "[CBK288962]", "% of control remaining": 95.0939}
{"smiles": "O=C1c2ccccc2S(=O)(=O)N1CC(O)Cn1c2ccc(Cl)cc2c2cc(Cl)ccc21", "note": "(stereo not drawn) [CBK262327]", "% of control remaining": 103.222}
{"smiles": "Cc1cccc(CN(CCCN)C(=O)Nc2ccc(C(C)(C)C)cc2)n1", "note": "[CBK033365C]", "% of control remaining": 86.7132}
{"smiles": "Cc1ccc(C)c(-n2nnnc2SC(C)C(=O)N2CCCC2)c1", "note": "(stereo not drawn) [CBK295204]", "% of control remaining": 150.761}
{"smiles": "O=C(c1nc2ncccn2n1)N1CCc2ccccc2C1", "note": "[CBK288079]", "% of control remaining": 137.424}
{"smiles": "Nc1ccc(S(=O)(=O)c2ccc(-n3c(=O)c4cc5c(=O)n(-c6ccc(S(=O)(=O)c7ccc(N)cc7)cc6)c(=O)c5cc4c3=O)cc2)cc1", "note": "[CBK261490]", "% of control remaining": 100}
{"smiles": "COc1ccc(CCCC(=O)n2c(=O)n(CCc3c[nH]c4ccccc34)c3ccccc32)cc1", "note": "[CBK106514]", "% of control remaining": 136.235}
{"smiles": "Cc1nc2c(c(=O)[nH]1)CN(Cc1ccccc1F)CC2", "note": "[CBK283948]", "% of control remaining": 146.649}
{"smiles": "Cc1cc(C)c2nc(-c3ccccn3)cc(C(=O)Nc3ccc(S(=O)(=O)Nc4cc(C)on4)cc3)c2c1", "note": "[CBK267779]", "% of control remaining": 111.945}
{"smiles": "CN(C)CCCn1cnc2c1c(=O)[nH]c(=O)n2C", "note": "[CBK287913]", "% of control remaining": 107.682}
{"smiles": "CC1CN(C(=O)c2ccccc2)CC(C)N1CCCCc1ccc(F)cc1", "note": "(stereo not drawn) [CBK025019C]", "% of control remaining": 132.064}
{"smiles": "COc1ccc(-c2nnc3ccc(SCc4ccccn4)nn23)cc1OC", "note": "[CBK287528]", "% of control remaining": 144.733}
